Data taken from patent publication US11957695B2, “Methods and compositions targeting glucocorticoid signaling for modulating immune responses” (The Broad Institute, Inc., priority 2018, dated 2024).
For at least one compound, name, drawing or mass did not settle the structure.

Assays:
[1] = test system: Havcr2 (Tim3), Pdcd1 (PD1), Lag3, Tigit and IL10 loci with Nr3c1 in 293T cells; assay: Luciferase reporter assays for transactivation of checkpoint receptor and IL10 loci by GR; type: cell-based; conditions: 293T cells with Nr3c1 vector, treated with glucocorticoid
[2] = biological target: T1, glucocorticoid receptor (GR) (Homo sapiens, UniProt P04150); conditions: cited from earlier work
T1 sequence (P04150 1-777): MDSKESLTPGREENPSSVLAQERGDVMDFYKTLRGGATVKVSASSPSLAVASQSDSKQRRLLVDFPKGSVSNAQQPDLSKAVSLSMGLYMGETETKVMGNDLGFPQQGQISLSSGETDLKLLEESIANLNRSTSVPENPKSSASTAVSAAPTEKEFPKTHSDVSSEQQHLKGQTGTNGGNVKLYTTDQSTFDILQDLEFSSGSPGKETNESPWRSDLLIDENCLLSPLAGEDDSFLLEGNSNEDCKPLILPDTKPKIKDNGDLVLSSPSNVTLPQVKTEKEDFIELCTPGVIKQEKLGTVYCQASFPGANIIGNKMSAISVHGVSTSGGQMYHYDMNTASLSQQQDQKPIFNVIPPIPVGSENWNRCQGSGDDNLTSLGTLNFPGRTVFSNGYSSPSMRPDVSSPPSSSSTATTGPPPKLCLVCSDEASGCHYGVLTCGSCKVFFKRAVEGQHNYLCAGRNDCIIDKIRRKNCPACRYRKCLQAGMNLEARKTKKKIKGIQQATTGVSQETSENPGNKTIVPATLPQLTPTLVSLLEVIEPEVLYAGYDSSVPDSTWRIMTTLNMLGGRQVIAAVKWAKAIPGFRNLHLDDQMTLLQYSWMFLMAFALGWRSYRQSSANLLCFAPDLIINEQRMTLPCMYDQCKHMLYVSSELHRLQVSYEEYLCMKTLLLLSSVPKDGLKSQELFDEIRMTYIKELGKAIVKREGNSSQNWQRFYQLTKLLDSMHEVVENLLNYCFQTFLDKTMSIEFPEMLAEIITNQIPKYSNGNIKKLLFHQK

Compound	transactivation of Tigit by the GR (luciferase) [1]	transactivation of Tim-3, PD-1, Lag-3, and IL-10 expression by the GR (luciferase) [1]	Glucocorticoid potency [2]
C[C@@H]1C[C@H]2[C@@H]3CCC4=CC(=O)C=C[C@]4(C)[C@@]3(F)[C@@H](O)C[C@]2(C)[C@@]1(O)C(=O)CO [Dexamethasone]	induced but to a much lower degree	potently transactivated	
C[C@H]1C[C@@H]2[C@H]([C@@H](O)C[C@@]3(C)[C@H]2CC[C@]3(O)C(=O)CO)[C@@]2(C)C=CC(=O)C=C12 [Methylprednisolone]			5-7.5
